The values below come from paper doi:10.1101/2021.04.15.440012.

By UniProt entry, the sequences of proteins in these tests, tags left out. Residues count along the entry.
UniProt P02769, 25-607: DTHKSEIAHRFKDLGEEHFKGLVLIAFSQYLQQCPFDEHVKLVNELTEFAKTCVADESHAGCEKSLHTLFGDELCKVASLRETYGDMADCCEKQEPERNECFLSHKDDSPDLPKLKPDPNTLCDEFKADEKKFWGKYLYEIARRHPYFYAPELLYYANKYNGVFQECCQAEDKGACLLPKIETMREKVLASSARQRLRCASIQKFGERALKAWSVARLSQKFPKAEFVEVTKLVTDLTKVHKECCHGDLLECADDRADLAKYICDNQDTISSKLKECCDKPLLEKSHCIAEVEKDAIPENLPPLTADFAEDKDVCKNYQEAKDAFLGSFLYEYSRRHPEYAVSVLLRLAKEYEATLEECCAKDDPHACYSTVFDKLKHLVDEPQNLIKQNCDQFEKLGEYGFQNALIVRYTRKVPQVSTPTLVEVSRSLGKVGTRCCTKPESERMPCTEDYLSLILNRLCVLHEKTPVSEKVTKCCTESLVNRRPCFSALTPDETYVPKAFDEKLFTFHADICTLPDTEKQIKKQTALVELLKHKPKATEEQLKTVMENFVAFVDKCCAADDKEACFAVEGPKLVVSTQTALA
UniProt P07724, 25-608: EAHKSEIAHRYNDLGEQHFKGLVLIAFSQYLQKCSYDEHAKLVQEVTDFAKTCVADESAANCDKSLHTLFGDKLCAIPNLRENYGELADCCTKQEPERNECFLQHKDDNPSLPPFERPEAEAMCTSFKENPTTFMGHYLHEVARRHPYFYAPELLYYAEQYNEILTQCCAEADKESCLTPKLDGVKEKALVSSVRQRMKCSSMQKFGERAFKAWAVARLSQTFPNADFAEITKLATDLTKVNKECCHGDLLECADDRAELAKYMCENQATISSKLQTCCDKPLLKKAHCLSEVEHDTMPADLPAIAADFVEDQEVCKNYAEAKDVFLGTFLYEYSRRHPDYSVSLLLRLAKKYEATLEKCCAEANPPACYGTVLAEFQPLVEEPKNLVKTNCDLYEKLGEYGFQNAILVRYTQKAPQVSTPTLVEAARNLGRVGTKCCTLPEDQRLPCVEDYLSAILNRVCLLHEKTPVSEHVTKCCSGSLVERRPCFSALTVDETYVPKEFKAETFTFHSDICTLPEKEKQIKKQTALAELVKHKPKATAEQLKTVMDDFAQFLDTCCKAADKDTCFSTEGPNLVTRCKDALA

For at least one entry, the source does not settle the construct or the ends of the probe. The comparison behind a weaker result is the experiment's own reference, which may not be listed here. At least one verdict rests on a figure or table, not on a statement of the authors.

What all share (experiment): plate-based fluorescence binding assay
Holding throughout (settings): 1 uM chimera; 2'-fluoro pyrimidines in the transcribed strand

Series [1] deals with Human serum albumin (Cy5-labeled in MST) (Homo sapiens) (UniProt P02768).
Series [2] concerns the target Bovine serum albumin (Bos taurus) (UniProt P02769).
The target in series [3] is Mouse serum albumin (Mus musculus) (UniProt P07724).

For “GAUACUGAGCAUCGUACAUGAUCCCGCAACGGGCAGUAUUAAGAGGAGUUCAUUAUCAGUGCAAUUGU / CAAUUGCACUGAUAAUGAACUCCTC”, the binding result in series [1], in series [2] and in series [3] was “binds more weakly” throughout.
For the sequence “GCGCCGCAACAGGUGUGACUGCCCUAGCCUCCGCUGUACCAAGAGGAGUUCAUUAUCAGUGCAAUUGUU / CAAUUGCACUGAUAAUGAACUCCTC”, the binding result in series [1], in series [2] and in series [3] was “binds” throughout.
